According to patent US20230279090A1 (Genentech, published 2023):

B1: VC072M.GS10X.VG1CTH (other)
chain: GCNIMLPYWGCGRDFECMEQCICQYYQSCGGSGSGSGSGSGSGSGSGSGSLHKVKVGKSPPVRGSLSGKVSLPCHFSTMPTLPPSYNTSEFLRIKWSKIEVDKNGKDLKETTVLVAQNGNIKIGQDYKGRVSVPTHPEAVGDASLTVVKLLASDAGLYRCDVMYGIEDTQDTVSLTVDGVVFHYRAATSRYTLNFEAAQKACLDVGAVIATPEQLFAAYEDGFEQCDAGWLADQTVRYPIRAPRVGCYGDKMGKAGVRTYGFRSPQETYDVYCYVDHLDGDVFHLTVPSKFTFEEAAKECENQDARLATVGELQAAWRNGFDQCDYGWLSDASVRHPVTVARAQCGGGLLGVRTLYRFENQTGFPPPDSRFDAYCFKPKEGNSHHHHHHHH
notes: also called Fusion 5
B2: VG1NTH.GS10X.VC072M (other)
chain: HHHHHHHHLHKVKVGKSPPVRGSLSGKVSLPCHFSTMPTLPPSYNTSEFLRIKWSKIEVDKNGKDLKETTVLVAQNGNIKIGQDYKGRVSVPTHPEAVGDASLTVVKLLASDAGLYRCDVMYGIEDTQDTVSLTVDGVVFHYRAATSRYTLNFEAAQKACLDVGAVIATPEQLFAAYEDGFEQCDAGWLADQTVRYPIRAPRVGCYGDKMGKAGVRTYGFRSPQETYDVYCYVDHLDGDVFHLTVPSKFTFEEAAKECENQDARLATVGELQAAWRNGFDQCDYGWLSDASVRHPVTVARAQCGGGLLGVRTLYRFENQTGFPPPDSRFDAYCFKPKEGNSGSGSGSGSGSGSGSGSGSGSGCNIMLPYWGCGRDFECMEQCICQYYQSCG
notes: also called Fusion 6

Molecular target: T1, VEGF
T1 chain: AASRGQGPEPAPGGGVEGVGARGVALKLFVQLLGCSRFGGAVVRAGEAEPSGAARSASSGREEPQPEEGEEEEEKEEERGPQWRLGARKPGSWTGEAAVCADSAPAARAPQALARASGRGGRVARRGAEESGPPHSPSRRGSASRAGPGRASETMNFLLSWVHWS
Assay: SPR; antigen immobilized directly on CM5 chip

| Binder | Kd [pM] |
| --- | --- |
| B1 | 750 |
| B2 | 550 |
